Patent US20250236842A1
No constants are given. Whether binding was seen depends on the method and setting. Some binding calls cover weakened binding; strength is not graded here.

B1: scFv-CD8-TIR-CAR (chimeric antigen receptor targeting EGFRvIII, on iPSC-derived macrophages) (protein)
chain: DIQMTQSPSSLSASVGDRVTITCRASQGIRNNLAWYQQKPGKAPKRLIYAASNLQSGVPSRFTGSGSGTEFTLIVSSLQPEDFATYYCLQHHSYPLTSGGGTKVEIKRTGSTSGSGKPGSGEGSEVQVLESGGGLVQPGGSLRLSCAASGFTFSSYAMSWVRQAPGKGLEWVSAISGSGGSTNYADSVKGRFTISRDNSKNTLYLQMNSLRAEDTAVYYCAGSSGWSEYWGQGTLVTVSSIYIWAPLAGTCGVLLLSLVITLYCNIYDAFVIYSSQDEDWVRNELVKNLEEGVPPFQLCLHYRDFIPGVAIAANIIHEGFHKSRKVIVVVSQHFIQSRWCIFEYEIAQTWQFLSSRAGIIFIVLQKVEKTLLRQQVELYRLLSRNTYLEWEDSVLGRHIFWRRLRKALLDG
B2: scFv-CD8-CD3ZETA-CAR (chimeric antigen receptor targeting EGFRvIII, on iPSC-derived macrophages) (protein)
chain: DIQMTQSPSSLSASVGDRVTITCRASQGIRNNLAWYQQKPGKAPKRLIYAASNLQSGVPSRFTGSGSGTEFTLIVSSLQPEDFATYYCLQHHSYPLTSGGGTKVEIKRTGSTSGSGKPGSGEGSEVQVLESGGGLVQPGGSLRLSCAASGFTFSSYAMSWVRQAPGKGLEWVSAISGSGGSTNYADSVKGRFTISRDNSKNTLYLQMNSLRAEDTAVYYCAGSSGWSEYWGQGTLVTVSSIYIWAPLAGTCGVLLLSLVITLYCRVKFSRSADAPAYKQGQNQLYNELNLGRREEYDVLDKRRGRDPEMGGKPRRKNPQEGLYNELQKDKMAEAYSEIGMKGERRRGKGHDGLYQGLSTATKDTYDALHMQALPPR
B3: scFv-CD8-DELTA-CAR (CAR without an intracellular activation domain, on iPSC-derived macrophages) (protein)
chain: DIQMTQSPSSLSASVGDRVTITCRASQGIRNNLAWYQQKPGKAPKRLIYAASNLQSGVPSRFTGSGSGTEFTLIVSSLQPEDFATYYCLQHHSYPLTSGGGTKVEIKRTGSTSGSGKPGSGEGSEVQVLESGGGLVQPGGSLRLSCAASGFTFSSYAMSWVRQAPGKGLEWVSAISGSGGSTNYADSVKGRFTISRDNSKNTLYLQMNSLRAEDTAVYYCAGSSGWSEYWGQGTLVTVSSIYIWAPLAGTCGVLLLSLVITLYC

Target: EGFRvIII (GBM-specific membrane protein, over-expressed on U87MG cells) (UniProt P00533)
Experiment: co-culture of CAR-iMAC with U87MG^EGFRvIII cells for 12 h, fluorescence microscopy (cell adhesion)

Binder	binding
B1	binds
B2	binds
B3	binds
